Values from PubChem BioAssay AID504804 (Drosophila RNAi Screening Center, 2011)

- Assay: 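Knock-downs shielding fly cells from apoptosis caused by DNA damage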 (primary screen)
- Cells: Drosophila Kc cells
- Reagent: long dsRNA against Drosophila genes, 0.5 µg dsRNA per well
- Timing: 96 h (48 h knock-down, then 48 h drug)
- Conditions: doxorubicin 5 µg/ml for 48 h, added 48 h after dsRNA
- Measurement: 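Viability measured as cellular ATP by luminescence after 48 h knock-down then 48 h doxorubicin at 5 µg/ml; unnormalised plate counts for each replicate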
- Scale: raw ATP luminescence: higher = more viable cells, protection from doxorubicin
- Hit rule: 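z-score of 2 or more over plate mean in both duplicates, retained only when retests and separate dsRNAs confirm the protection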
In all, the deposit lists about 19,000 reagents; shown is a random part of those with a known target gene and a result. Over the whole deposit, 47 (0.25%) are marked active. 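Signals are raw, not normalised; exact z-scores behind calls not deposited; actives needed confirmation, so some wells reaching 2 SD are inactive.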 Entries without a mark were called inactive. A plus sign joins genes that one reagent is predicted to hit. Reagent sequences are not shown.

gene | dsRNA | raw ATP luminescence, replicate 1 | raw ATP luminescence, replicate 2
CG12688 (retired record) | DRSC17877 | 43020 | 44800
CG12688 (retired record) | DRSC17878 | 37170 | 49660
Nnk (Nicknack) | DRSC15274 | 47860 | 39480
CG11404 | DRSC11656 | 50867 | 60030
Slob (retired record) | DRSC03436 | 1.04e5 | 73573
Zyx (Zyxin) | DRSC17186 | 1.66e5 | 1.72e5
mas (masquerade) | DRSC08720 | 34170 | 32277
ca (claret) | DRSC15306 | 64670 | 54760
ca (claret) | DRSC16314 | 62360 | 38300
Oatp74D (Organic anion transporting polypeptide 74D) | DRSC09491 | 76463 | 87660
Oatp74D (Organic anion transporting polypeptide 74D) | DRSC10883 | 38560 | 33733
hep (hemipterous) | DRSC19839 | 2.58e5 | 2.41e5
hep (hemipterous) | DRSC20337 | 2.97e5 | 2.78e5
CG34430 | DRSC06499 | 46890 | 80547
Naa15-16 (N(alpha)-acetyltransferase 15/16) | DRSC19440 | 1.69e5 | 1.67e5
CG10445 | DRSC14247 | 69187 | 59930
CG14313 | DRSC14792 | 61400 | 91770
CG12402 | DRSC14508 | 80260 | 90170
Ssu72 (Ssu72 CTD phosphatase) | DRSC19572 | 3.21e5 | 2.95e5
Mtp (Microsomal triacylglycerol transfer protein) | DRSC03216 | 67580 | 64047
CG34112 | DRSC12235 | 60603 | 65850
Xpd (Xeroderma pigmentosum D) | DRSC04666 | 65283 | 54173
CG33281 | DRSC00421 | 30617 | 38307
Ppat-Dpck | DRSC09744 | 85323 | 93977
sesB (stress-sensitive B) | DRSC20371 | 2.02e5 | 1.84e5
CG4287 | DRSC15559 | 67363 | 63347
CG34278 | DRSC13208 | 2.29e5 | 2.74e5
eEF1alpha2 (eukaryotic translation elongation factor 1 alpha 2) | DRSC14079 | 2.82e5 | 2.74e5
eEF1alpha2 (eukaryotic translation elongation factor 1 alpha 2) | DRSC16658 | 39710 | 38960
CG13055 | DRSC09936 | 48173 | 38967
p130CAS + Dic61B | DRSC08588 | 50823 | 65490
CG14244 | DRSC14739 | 36080 | 44740
CG30274 | DRSC04171 | 54877 | 56443
Spn42Db (Serpin 42Db) | DRSC05009 | 29533 | 1.12e5
CkIIalpha-i3 (CKII-alpha subunit interactor-3) | DRSC08651 | 80210 | 87017
CG33523 | DRSC09814 | 69217 | 76077
EndoG (Endonuclease G) | DRSC07292 | 71043 | 64677
Fas3 (Fasciclin 3) | DRSC01638 | 1.81e5 | 1.35e5
Fas3 (Fasciclin 3) | DRSC03326 | 64700 | 71523
CG4789 | DRSC19918 | 3.61e5 | 3.23e5
Ugt35B1 (UDP-glycosyltransferase family 35 member B1) | DRSC16893 | 51027 | 23970
CG43996 | DRSC19456 | 3.15e5 | 2.96e5
CG43996 | DRSC19457 | 3.45e5 | 3.18e5
beat-Vb (beaten path Vb) | DRSC12940 | 2.41e5 | 2.55e5
beat-Vb (beaten path Vb) | DRSC14844 | 1.75e5 | 2.00e5
beat-Vb (beaten path Vb) | DRSC14845 | 48297 | 57240
RIC-3 (RIC3 acetylcholine receptor chaperone) | DRSC04243 | 75653 | 52690
RIC-3 (RIC3 acetylcholine receptor chaperone) | DRSC04543 | 67913 | 57080
NPFR (Neuropeptide F receptor) | DRSC12173 | 74790 | 66213
CG9287 | DRSC03186 | 44353 | 64143
lmd (lame duck) | DRSC15618 | 25350 | 25690
PIG-B (Phosphatidylinositol glycan anchor biosynthesis class B) | DRSC08216 | 44827 | 31683
Sh (Shaker) | DRSC19214 | 33397 | 42990
Sh (Shaker) | DRSC19220 | 2.49e5 | 2.53e5
Sh (Shaker) | DRSC19785 | 3.53e5 | 3.30e5
Sh (Shaker) | DRSC20055 | 3.83e5 | 3.72e5
conu (conundrum) | DRSC07810 | 81370 | 1.22e5
Alp13 (Alkaline phosphatase 13) | DRSC15781 | 51837 | 47530
CG4116 | DRSC18348 | 55410 | 61530
CR15280 (pseudo) | DRSC01953 | 67007 | 60980
CG40191 | DRSC21041 | 2.05e5 | 2.12e5
CG31709 | DRSC01081 | 3.04e5 | 3.39e5
CG15034 | DRSC17966 | 67650 | 63130
CG31915 | DRSC03000 | 23683 | 26893
CG5126 | DRSC00680 | 1.08e5 | 95060
CG12278 | DRSC14494 | 70000 | 48650
how (held out wings) | DRSC16966 | 31280 | 32070
fus (fusilli) | DRSC05569 | 93107 | 95313
fus (fusilli) | DRSC07107 | 80427 | 72140
CG10311 | DRSC14228 | 74000 | 68820
kri (krishah) | DRSC10515 | 41807 | 42207
bru3 (bruno 3) | DRSC09280 | 96433 | 1.02e5
bru3 (bruno 3) | DRSC09687 | 19607 | 22397
bru3 (bruno 3) | DRSC09887 | 59280 | 59207
RpL35 (Ribosomal protein L35) | DRSC18347 | 22410 | 35790
fabp + sea | DRSC16114 | 59353 | 36243
fabp + sea | DRSC16115 | 51210 | 35880
Prosbeta5R2 (Proteasome beta5 subunit-related 2) | DRSC01617 | 2.82e5 | 2.70e5
Hen1 (Hen1 methyltransferase) | DRSC06139 | 60890 | 44893
Sur-8 | DRSC15794 | 53380 | 79280
CG10462 | DRSC02058 | 84400 | 70270
ptc (patched) | DRSC05117 | 97227 | 89593
ptc (patched) | DRSC07669 | 48043 | 75443
mu2 (mutator 2) | DRSC08726 | 53523 | 51323

Looked up above:
CG10311 [DRSC14228], raw ATP luminescence, replicate 1 → 74000
Entry for ptc (patched) [DRSC05117] in “raw ATP luminescence, replicate 2”: 89593
Xpd (Xeroderma pigmentosum D) [DRSC04666], raw ATP luminescence, replicate 2: 54173
fus (fusilli) [DRSC05569], raw ATP luminescence, replicate 2 → 95313
Sh (Shaker) [DRSC20055], raw ATP luminescence, replicate 2 → 3.72e5
Entry of bru3 (bruno 3) [DRSC09887] under “raw ATP luminescence, replicate 1”: 59280
